The results in this text go back to patent EP2601945A1 (Thomale, Jürgen, priority 2011, dated 2013).

Structures are written as SMILES.

In data set [1] the test system is hearing capability. The settings on record: mouse, in vivo, 57 mg/kg.
The subject of data set [2] is hearing capability. Briefly: BAER hearing test after repetitive cis-platin with or without DPH, or DPH alone. The settings on record: DPH administered together with cis-platin, mice (description).

As to `CN(C)CCOC(c1ccccc1)c1ccccc1` [DPH, diphenhydramine], the “hearing capability one hour after DPH” value in the data set with hearing capability [1] was determined as 70%. For the same molecule, in the data set on hearing capability [2], the hearing capacity maintained entry was “more than 80%”.
